{"source": "patent US20260158153A1", "about": "(priority 2021, published 2026)", "data": [{"assay": "general procedure: solution-phase peptide synthesis; HATU / diisopropylethylamine", "conditions": "conjugation step", "values": [{"substance": "(4R,4′R)-5,5′-((((10S,18S,19S,27S)-18,19-bis(2,5-dioxo-2,5-dihydro-1H-pyrrol-1-yl)-4,9,12,17,20,25,28,33-octaoxo-10,27-bis(31-oxo-2,5,8,11,14,17,20,23,26,29-decaoxa-32-azahexatriacontan-36-yl)-3,8,11,16,21,26,29,34-octaazahexatriacontanedioyl)bis(azanediyl))bis(4-hydroxy-3,1-phenylene))bis(4-(2-((3S,6S,9R,11R)-6-((S)-sec-butyl)-3,9-diisopropyl-2,8-dimethyl-4,7-dioxo-12-oxa-2,5,8-triazatridecan-11-yl)thiazole-4-carboxamido)pentanoic acid)", "conjugation yield": "45%"}, {"substance": "(4R,4′R)-5,5′-((((10S,18S,19S,27S)-18,19-bis(2,5-dioxo-2,5-dihydro-1H-pyrrol-1-yl)-4,9,12,17,20,25,28,33-octaoxo-10,27-bis(31-oxo-2,5,8,11,14,17,20,23,26,29-decaoxa-32-azahexatriacontan-36-yl)-3, 8,11,16,21,26,29,34-octaazahexatriacontanedioyl)bis(azanediyl))bis(4-hydroxy-3,1-phenylene))bis(4-(2-((6S,9R,11R)-6-((S)-sec-butyl)-9-isopropyl-2,3,3,8-tetramethyl-4,7,13-trioxo-12-oxa-2,5,8-triazatetradecan-11-yl)thiazole-4-carboxamido)pentanoic acid)", "conjugation yield": "57%"}, {"substance": "(4R,4′R)-5,5′-((((11S,19S,20S,28S)-19,20-bis(2,5-dioxo-2,5-dihydro-1H-pyrrol-1-yl)-4,7,10,13,18,21,26,29,32,35-decaoxo-11,28-bis(31-oxo-2,5,8,11,14,17,20,23,26,29-decaoxa-32-azahexatriacontan-36-yl)-3,6,9,12,17,22,27,30,33,36-decaazaoctatriacontanedioyl)bis(azanediyl))bis(4-hydroxy-3,1-phenylene))bis(4-(2-((6S,9R,11R)-6-((S)-sec-butyl)-9-isopropyl-2,3,3, 8-tetramethyl-4,7,13-trioxo-12-oxa-2,5,8-triazatetradecan-11-yl)thiazole-4-carboxamido)pentanoic acid)", "conjugation yield": "13% yield"}, {"substance": "(4R,4′R)-5,5′-((((14S,22S,23S,31S)-22,23-bis(2,5-dioxo-2,5-dihydro-1H-pyrrol-1-yl)-4,7,10,13,16,21,24,29,32,35,38,41-dodecaoxo-14,31-bis(31-oxo-2,5,8,11,14,17,20,23,26,29-decaoxa-32-azahexatriacontan-36-yl)-3,6,9,12,15,20,25,30,33,36,39,42-dodecaazatetratetracontanedioyl)bis(azanediyl))bis(4-hydroxy-3,1-phenylene))bis(4-(2-((6S,9R,11R)-6-((S)-sec-butyl)-9-isopropyl-2,3,3,8-tetramethyl-4,7,13-trioxo-12-oxa-2,5,8-triazatetradecan-11-yl)thiazole-4-carboxamido)pentanoic acid)", "conjugation yield": "75% yield"}, {"substance": "(4R,4′R)-5,5′-((((16S,24S,25S,33S)-24,25-bis(2,5-dioxo-2,5-dihydro-1H-pyrrol-1-yl)-4,7,10,15,18,23,26,31,34,39,42,45-dodecaoxo-16,33-bis(31-oxo-2,5,8,11,14,17,20,23,26,29-decaoxa-32-azahexatriacontan-36-yl)-3,6,9,14,17,22,27,32,35,40,43,46-dodecaazaoctatetracontanedioyl)bis(azanediyl))bis(4-hydroxy-3,1-phenylene))bis(4-(2-((3S,6S,9R,11R)-6-((S)-sec-butyl)-3,9-diisopropyl-2,8-dimethyl-4,7-dioxo-12-oxa-2,5,8-triazatridecan-11-yl)thiazole-4-carboxamido)pentanoic acid)", "conjugation yield": "31%"}, {"substance": "(25,2'S,4R,4′R)-5,5′-((((2S,5S,8S,16S,17S,25S,28S,31S)-16,17-bis(2,5-dioxo-2,5-dihydro-1H-pyrrol-1-yl)-5,28-diisopropyl-2,31-dimethyl-4,7,10,15,18,23,26,29-octaoxo-8,25-bis(31-oxo-2,5,8,11,14,17,20,23,26,29-decaoxa-32-azahexatriacontan-36-yl)-3,6,9,14,19,24,27,30-octaazadotriacontanedioyl)bis(azanediyl)) bis(4-hydroxy-3,1-phenylene))bis(4-(2-((6S,9R,11R)-6-((S)-sec-butyl)-9-isopropyl-2,3,3,8-tetramethyl-4,7,13-trioxo-12-oxa-2,5,8-triazatetradecan-11-yl)thiazole-4-carboxamido)-2-methylpentanoic acid)", "conjugation yield": "18% yield"}, {"substance": "(R,R,S,S,S,4R,4′R)-5,5′-((((105,185,195,27S)-18,19-bis(2,5-dioxo-2,5-dihydro-1H-pyrrol-1-yl)-4,9,12,17,20,25,28,33-octaoxo-10,27-bis(31-oxo-2,5,8,11,14,17,20,23,26,29-decaoxa-32-azahexatriacontan-36-yl)-3,8,11,16,21,26,29,34-octaazahexatriacontane-1,36-dioyl)bis(azanediyl))bis(4-hydroxy-3,1-phenylene))bis(4-(2-((3S,6S,9R,11R)-6-((S)-sec-butyl)-3,9-diisopropyl-2,8-dimethyl-4,7,13-trioxo-12-oxa-2,5,8-triazatetradecan-11-yl)thiazole-4-carboxamido)pentanoic acid)", "conjugation yield": "54%"}]}, {"assay": "general procedure: solution-phase peptide synthesis; HATU / diisopropylethylamine", "conditions": "coupling step", "units": {"step yield": "%"}, "values": [{"substance": "(4R,4′R)-5,5′-((((16S,24S,25S,33S)-24,25-bis(2,5-dioxo-2,5-dihydro-1H-pyrrol-1-yl)-4,7,10,15,18,23,26,31,34,39,42,45-dodecaoxo-16,33-bis(31-oxo-2,5,8,11,14,17,20,23,26,29-decaoxa-32-azahexatriacontan-36-yl)-3,6,9,14,17,22,27,32,35,40,43,46-dodecaazaoctatetracontanedioyl)bis(azanediyl))bis(4-hydroxy-3,1-phenylene))bis(4-(2-((3S,6S,9R,11R)-6-((S)-sec-butyl)-3,9-diisopropyl-2,8-dimethyl-4,7-dioxo-12-oxa-2,5,8-triazatridecan-11-yl)thiazole-4-carboxamido)pentanoic acid)", "step yield": 99.94}]}, {"assay": "general procedure: solution-phase peptide synthesis; HATU / diisopropylethylamine", "conditions": "late stage modification step", "values": [{"substance": "(11S,19S,20S,28S)-19,20-bis(2,5-dioxo-2,5-dihydro-1H-pyrrol-1-yl)-4,7,10,13,18,21,26,29,32,35-decaoxo-11,28-bis(31-oxo-2,5,8,11,14,17,20,23,26,29-decaoxa-32-azahexatriacontan-36-yl)-3,6,9,12,17,22,27,30,33,36-decaazaoctatriacontanedioic acid", "step yield": "71%"}, {"substance": "((S)-2-(4-(2, 5-dioxo-2, 5-dihydro-1H-pyrrol-1-yl)butanamido)-5-methoxy-5-oxopentanoyl)-L-alanyl-L-alanyl-L-alanine", "step yield": "70%"}, {"substance": "((S)-2-amino-5-methoxy-5-oxopentanoyl)-L-alanyl-L-alanyl-L-alanine", "step yield": "100%"}, {"substance": "((S)-37-(4-(2, 5-dioxo-2, 5-dihydro-1H-pyrrol-1-yl)butanamido)-31-oxo-2, 5, 8, 11, 14, 17, 20, 23, 26, 29-decaoxa-32-azaoctatriacontan-38-oyl)-L-alanyl-L-alanyl-L-alanine", "step yield": "63% yield"}, {"substance": "(R)-4-amino-5-(3-((6S, 9S, 12S, 15S)-6-(4-(2, 5-dioxo-2, 5-dihydro-1H-pyrrol-1-yl)butanamido)-9, 12, 15-trimethyl-3, 7, 10, 13-tetraoxo-2-oxa-8, 11, 14-triazahexadecan-16-amido)-4-hydroxyphenyl)pentanoic acid", "step yield": ">100%"}, {"substance": "(R)-4-amino-5-(3-((37S, 40S)-37-(4-(2, 5-dioxo-2, 5-dihydro-1H-pyrrol-1-yl)butanamido)-40-isopropyl-31, 38, 41-trioxo-2, 5, 8, 11, 14, 17, 20, 23, 26, 29-decaoxa-32, 39, 42-triazatetratetracontan-44-amido)-4-hydroxyphenyl)pentanoic acid", "step yield": ">100%"}, {"substance": "(R)-4-amino-5-(3-((37S, 40S, 43S)-37-(4-(2, 5-dioxo-2, 5-dihydro-1H-pyrrol-1-yl)butanamido)-40, 43-dimethyl-31, 38, 41-trioxo-2, 5, 8, 11, 14, 17, 20, 23, 26, 29-decaoxa-32, 39, 42-triazatetratetracontan-44-amido)-4-hydroxyphenyl)pentanoic acid", "step yield": ">100%"}, {"substance": "(R)-4-amino-5-(3-((S)-37-(4-(2, 5-dioxo-2, 5-dihydro-1H-pyrrol-1-yl)butanamido)-31, 38, 43-trioxo-2, 5, 8, 11, 14, 17, 20, 23, 26, 29-decaoxa-32, 39, 44-triazahexatetracontan-46-amido)-4-hydroxyphenyl)pentanoic acid", "step yield": ">100%"}, {"substance": "(R)-4-amino-5-(4-hydroxy-3-((S)-37-(4-((E)-4-methoxy-4-oxobut-2-enamido)butanamido)-31, 38, 43-trioxo-2, 5, 8, 11, 14, 17, 20, 23, 26, 29-decaoxa-32, 39, 44-triazahexatetracontan-46-amido)phenyl)pentanoic acid", "step yield": "100%"}, {"substance": "(S)-(S)-(S)-(37-(4-(2, 5-dioxo-2, 5-dihydro-1H-pyrrol-1-yl)butanamido)-31, 38-dioxo-2, 5, 8, 11, 14, 17, 20, 23, 26, 29-decaoxa-32, 39-diazatritetracontan-43-oyl)glycylglycylglycine", "step yield": "92%"}, {"substance": "(S, E)-37-((4-((2-(tert-butoxy)-2-oxoethyl)amino)-4-oxobutyl)carbamoyl)-31, 39, 44-trioxo-2, 5, 8, 11, 14, 17, 20, 23, 26, 29-decaoxa-32, 38, 43-triazaheptatetracont-45-en-47-oic acid", "step yield": "98%"}, {"substance": "(S, E)-(37-(4-(4-methoxy-4-oxobut-2-enamido)butanamido)-31, 38-dioxo-2, 5, 8, 11, 14, 17, 20, 23, 26, 29-decaoxa-32, 39-diazatritetracontan-43-oyl)glycine", "step yield": "47.33%"}, {"substance": "benzyl (2S, 4R)-5-(3-amino-4-(benzyloxy)phenyl)-4-(2-((6S, 9R, 11R)-6-((S)-sec-butyl)-9-isopropyl-2, 3, 3, 8-tetramethyl-4, 7, 13-trioxo-12-oxa-2, 5, 8-triazatetradecan-11-yl)thiazole-4-carboxamido)-2-methylpentanoate", "step yield": "85%"}, {"substance": "benzyl (2S, 4R)-5-(4-(benzyloxy)-3-nitrophenyl)-4-(2-((6S, 9R, 11R)-6-((S)-sec-butyl)-9-isopropyl-2, 3, 3, 8-tetramethyl-4, 7, 13-trioxo-12-oxa-2, 5, 8-triazatetradecan-11-yl)thiazole-4-carboxamido)-2-methylpentanoate", "step yield": "65%"}, {"substance": "benzyl ((37S,40S,43S)-40-isopropyl-43-methyl-31,38,41,44,47,50-hexaoxo-2,5,8,11,14,17,20,23,26,29-decaoxa-32,39,42,45,48-pentaazapentacontan-37-yl)carbamate", "step yield": "68%"}]}, {"assay": "general procedure: solution-phase peptide synthesis; HATU / diisopropylethylamine", "conditions": "late stage modification step; run 1", "units": {"step yield": "%"}, "values": [{"substance": "(S)-(S)-(37-(4-(2, 5-dioxo-2, 5-dihydro-1H-pyrrol-1-yl)butanamido)-31, 38-dioxo-2, 5, 8, 11, 14, 17, 20, 23, 26, 29-decaoxa-32, 39-diazatritetracontan-43-oyl)glycylglycine", "step yield": 93}]}, {"assay": "general procedure: solution-phase peptide synthesis; HATU / diisopropylethylamine", "conditions": "late stage modification step; run 2", "units": {"step yield": "%"}, "values": [{"substance": "(S)-(S)-(37-(4-(2, 5-dioxo-2, 5-dihydro-1H-pyrrol-1-yl)butanamido)-31, 38-dioxo-2, 5, 8, 11, 14, 17, 20, 23, 26, 29-decaoxa-32, 39-diazatritetracontan-43-oyl)glycylglycine", "step yield": 100}]}]}
